Drawing on PMC7819943, “Rice protein-binding microarrays: a tool to detect cis-acting elements near promoter regions in rice”, this text covers binding signal for 42 sequences.

Protein sequences, listed by entry. Tags and fused reporters are not part of them.
UniProt Q0JBA9, entry or part of it: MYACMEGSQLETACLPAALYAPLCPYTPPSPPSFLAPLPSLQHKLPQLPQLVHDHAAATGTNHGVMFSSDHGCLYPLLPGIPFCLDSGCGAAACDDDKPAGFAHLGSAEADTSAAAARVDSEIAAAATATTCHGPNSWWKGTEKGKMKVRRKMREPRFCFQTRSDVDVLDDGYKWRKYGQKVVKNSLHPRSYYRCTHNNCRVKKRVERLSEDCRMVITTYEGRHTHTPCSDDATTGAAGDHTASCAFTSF

This is one part of the list.

The assay has as its target OsWRKY34 (Oryza sativa, UniProt Q0JBA9 1-250). In words: protein-binding microarray (RPBM); PBS, 2% BSA, 51.3 ng/ul salmon testes DNA, 50 uM zinc acetate, 200 nM TF, 25 C, 1 h; high values mean tight binding. The conditions noted are these: protein: recombinant; tags: N-terminal polyhistidine and DsRed monomer fusion (pET32a); label: CyDye5-dUTP incorporated in the synthesized complementary strand; 3' TTTTT single-stranded linker to array surface; dsDNA, one strand shown. A digest of the protocol:
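An Axon 4000B scanner gave the binding signal as per-feature fluorescence intensity in arbitrary units. This followed washing of a custom Agilent array that had been incubated for 1 h at 25 °C with 200 nM protein in PBS, 2% BSA, salmon testes DNA and 50 µM zinc acetate. The proteins were transcription factors fused at the N-terminus to polyhistidine and DsRed, expressed in E. coli BL21-CodonPlus and purified on Ni–NTA.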
Turning to “AGCATTTGTTGTTTTGCGCATACTGACTTGGTAATAGCTACGGAGTCACCTAGTGCAG”, the binding signal was 10400 fluorescence intensity (a.u.).
In the case of “TTCTTCTCTCTCTCTTGTCACTCATCATCATCACTCTTCACGGAGTCACCTAGTGCAG”, the binding signal was 10900 fluorescence intensity (a.u.).
Take “TTTGGTTGAATCTTATCCTAAACGTTGATTTTTGTTTTTACGGAGTCACCTAGTGCAG”: the binding signal was 9320 fluorescence intensity (a.u.).
Then “CTGTGACTCTCACGCGTTGGTCTTTTCGTCTCGGCCTCGTCGGAGTCACCTAGTGCAG”, with 9950 fluorescence intensity (a.u.); and “ACCATGACTCCTCTCTCTGAACGGCTGAACCTTATTGGCACGGAGTCACCTAGTGCAG”, with 8200 fluorescence intensity (a.u.).
In the case of “CGGCGAAATCCGCCGACCTTGCGCCTCTGTCCGCCTCCGCCGGAGTCACCTAGTGCAG” it was 8120 fluorescence intensity (a.u.); in that of “TGCCCTCTTTCTCTACAACTTGCAAGGCTCCTGTCGGGGTCGGAGTCACCTAGTGCAG”, 8750 fluorescence intensity (a.u.).
With “TACATCCCTCCACGTCATCGATCCGCGCCGCGTGCCTTCCCGGAGTCACCTAGTGCAG”, the binding signal was 9950 fluorescence intensity (a.u.).
In the case of “TCGCACTGTTTCACCGGTCGCCCAATCGCCACCGCGCCCGCGGAGTCACCTAGTGCAG” it was 8060 fluorescence intensity (a.u.); in that of “GATCATTTTGCCAGTCTGTCTGGTGTCTGAACTTGTAAGCCGGAGTCACCTAGTGCAG”, 10800 fluorescence intensity (a.u.).
For “CATAATTCAGACTACCCCTGATTTTTTTATTTTAGCCTACCGGAGTCACCTAGTGCAG”, the binding signal was 8320 fluorescence intensity (a.u.).
For the sequence “AGCAGCCAGACGATTCTCTTCAGTTTCTTACATCTTCCAACGGAGTCACCTAGTGCAG”, the binding signal was 9000 fluorescence intensity (a.u.).
Then “CACCAATACCGGTCCATCTCGCTTTTCTCAATCTCCATAGCGGAGTCACCTAGTGCAG”, with 11800 fluorescence intensity (a.u.); and “TGGGACTAATTTGTTGTCGTAGATCTTCATGTTTTTTCTACGGAGTCACCTAGTGCAG”, with 10700 fluorescence intensity (a.u.); and “TGTCGTCACCGTGGTCTCTACCTGCTGCTCCACTCCCACCCGGAGTCACCTAGTGCAG”, with 10400 fluorescence intensity (a.u.).
In the case of “GGGTTTATTTGGGCGGTGGGGAGAAATCCGTGGTTCGGTGCGGAGTCACCTAGTGCAG” it was 15200 fluorescence intensity (a.u.); in that of “CTTTTTTTTGTTAGCAGCCTCTTTATCCTGTTCTTTGAGGCGGAGTCACCTAGTGCAG”, 11000 fluorescence intensity (a.u.); in that of “CAAATTTTGGTTTTCTTGGTTGCTTTTTGAGAACATGAGCCGGAGTCACCTAGTGCAG”, 8300 fluorescence intensity (a.u.).
Then “GTCGCCGCCTCCTCCTCTCCATCTCCGCTGCTATTATTGCCGGAGTCACCTAGTGCAG”, with 12900 fluorescence intensity (a.u.).
Take “GTCTCTTCTCTTCTCTCGTGCAAGGCCGGCAGTGTACCGTCGGAGTCACCTAGTGCAG”: the binding signal was 9270 fluorescence intensity (a.u.).
In the case of “AACAGGGAGCGCGCTTTGCCAGATCTACCCCGTTCCATTCCGGAGTCACCTAGTGCAG” it was 8040 fluorescence intensity (a.u.); in that of “TCAGTTTTTGGCTCCAACAATAGTGTTGGTTTGATTTTTACGGAGTCACCTAGTGCAG”, 9210 fluorescence intensity (a.u.).
Then “CCACGCCAATTAGCATCCCACGTTTCGCCTTTGATTGTGGCGGAGTCACCTAGTGCAG”, with 8090 fluorescence intensity (a.u.); and “CCGCATCCACAGTTCTTTTCCTTTTTGTGAGTTTCTTTTTCGGAGTCACCTAGTGCAG”, with 11100 fluorescence intensity (a.u.); and “CAATTTTACCTCGGACTTATTATCTGCTCTGCGAGATTAGCGGAGTCACCTAGTGCAG”, with 8130 fluorescence intensity (a.u.).
Turning to “CTCTCCTCTCTTCTCGAGCGCGGCGGCGGTGGTGGGGAGGCGGAGTCACCTAGTGCAG”, the binding signal was 14300 fluorescence intensity (a.u.).
Turning to “TGTTCTTCCCTTTTTCTTTCTTGGAATTCGATATTTCGATCGGAGTCACCTAGTGCAG”, the binding signal was 9390 fluorescence intensity (a.u.).
In the case of “AACGAAAGATTGAACCCCTGACCGGACCACTGCTACTTTGCGGAGTCACCTAGTGCAG” it was 8520 fluorescence intensity (a.u.); in that of “TACAAGCCCGTTGCCATCTCTACTCCGGCCTCCTAGTCCTCGGAGTCACCTAGTGCAG”, 9760 fluorescence intensity (a.u.).
Then “GCTACACCGCACCCACCACAGCCAGACTTGAACTTGTTGACGGAGTCACCTAGTGCAG”, with 8950 fluorescence intensity (a.u.).
Then “CGTAACCTTGGCCTATATTTGATATTTCTCTCCGGCGATACGGAGTCACCTAGTGCAG”, with 9700 fluorescence intensity (a.u.); and “TGGTCAAGCCCTTTTTGATCTTTTTTTTTCTGTCTCATGCCGGAGTCACCTAGTGCAG”, with 9610 fluorescence intensity (a.u.); and “TCACCCTTCACCTGCATGATCCTCTCTTTTTCAATCCCTCCGGAGTCACCTAGTGCAG”, with 9340 fluorescence intensity (a.u.).
For “TGTAATGCCATGACTCTTTCAGTAATTCCTGCAGCTTGTCCGGAGTCACCTAGTGCAG”, the binding signal is 9810 fluorescence intensity (a.u.).
Then “TCCCGACCACCGCCGCCGCCGCCGCCCACCTCCTCCTCCGCGGAGTCACCTAGTGCAG”, with 9990 fluorescence intensity (a.u.).
In the case of “ATACAACTTTTCAGTCACATCGTACCAATTTCAATCCAAACGGAGTCACCTAGTGCAG” it was 9720 fluorescence intensity (a.u.); in that of “ATCACTTCAGCTTGGCCGCGTTCTTTTCAGTGGTTGGGTTCGGAGTCACCTAGTGCAG”, 11400 fluorescence intensity (a.u.); in that of “GCCATCACGCTCCCGCTCTACCGCAACCTCCCGCCCGTCCCGGAGTCACCTAGTGCAG”, 11000 fluorescence intensity (a.u.).
Turning to “AGAACACAAATAAAGCTTTATTTATTCTATTGTTTTGTTTCGGAGTCACCTAGTGCAG”, the binding signal was 8370 fluorescence intensity (a.u.).
In the case of “GCTCTTAGCTGCTGTTCTATGCAATTGTTCAATATTTTTTCGGAGTCACCTAGTGCAG” it was 8520 fluorescence intensity (a.u.); in that of “GATCCCAACGCCGACCCTACACGTCATCCCTACGCCTCGTCGGAGTCACCTAGTGCAG”, 10700 fluorescence intensity (a.u.).
In the case of “ATCTTCTTATGTTCTTTGTCTGTGCAACTTTTGATAGAAACGGAGTCACCTAGTGCAG” it was 13500 fluorescence intensity (a.u.).
